Measured values taken from patent US6344546.
No constants are given. Whether binding was seen depends on the method and setting. Some entries that bind do so weakly or less than the wild type.

Amino acid sequences for entries named in this document (tags omitted). Residues count along the entry.
UniProt P11362, residues 22-822: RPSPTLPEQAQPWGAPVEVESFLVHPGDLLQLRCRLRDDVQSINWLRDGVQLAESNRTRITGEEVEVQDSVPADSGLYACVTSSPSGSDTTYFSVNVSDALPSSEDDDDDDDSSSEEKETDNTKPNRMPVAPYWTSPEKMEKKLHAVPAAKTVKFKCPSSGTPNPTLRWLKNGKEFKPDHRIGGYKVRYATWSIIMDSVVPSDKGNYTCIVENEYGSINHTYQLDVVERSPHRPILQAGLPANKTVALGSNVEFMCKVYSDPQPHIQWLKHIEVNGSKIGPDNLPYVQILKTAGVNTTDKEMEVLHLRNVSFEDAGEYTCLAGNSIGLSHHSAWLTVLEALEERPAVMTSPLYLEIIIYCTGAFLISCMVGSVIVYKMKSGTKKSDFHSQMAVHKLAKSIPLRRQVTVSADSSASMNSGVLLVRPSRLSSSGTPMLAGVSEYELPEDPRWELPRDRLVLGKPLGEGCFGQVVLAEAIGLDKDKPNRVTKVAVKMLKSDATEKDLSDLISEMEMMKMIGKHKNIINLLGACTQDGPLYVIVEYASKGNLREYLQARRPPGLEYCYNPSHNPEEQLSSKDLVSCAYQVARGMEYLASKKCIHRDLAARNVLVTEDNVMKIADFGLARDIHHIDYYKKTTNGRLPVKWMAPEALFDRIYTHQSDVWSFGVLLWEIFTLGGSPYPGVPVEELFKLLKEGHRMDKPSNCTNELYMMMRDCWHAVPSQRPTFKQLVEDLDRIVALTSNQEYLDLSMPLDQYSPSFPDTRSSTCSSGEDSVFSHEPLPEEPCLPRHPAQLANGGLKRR
UniProt P21802, residues 22-821: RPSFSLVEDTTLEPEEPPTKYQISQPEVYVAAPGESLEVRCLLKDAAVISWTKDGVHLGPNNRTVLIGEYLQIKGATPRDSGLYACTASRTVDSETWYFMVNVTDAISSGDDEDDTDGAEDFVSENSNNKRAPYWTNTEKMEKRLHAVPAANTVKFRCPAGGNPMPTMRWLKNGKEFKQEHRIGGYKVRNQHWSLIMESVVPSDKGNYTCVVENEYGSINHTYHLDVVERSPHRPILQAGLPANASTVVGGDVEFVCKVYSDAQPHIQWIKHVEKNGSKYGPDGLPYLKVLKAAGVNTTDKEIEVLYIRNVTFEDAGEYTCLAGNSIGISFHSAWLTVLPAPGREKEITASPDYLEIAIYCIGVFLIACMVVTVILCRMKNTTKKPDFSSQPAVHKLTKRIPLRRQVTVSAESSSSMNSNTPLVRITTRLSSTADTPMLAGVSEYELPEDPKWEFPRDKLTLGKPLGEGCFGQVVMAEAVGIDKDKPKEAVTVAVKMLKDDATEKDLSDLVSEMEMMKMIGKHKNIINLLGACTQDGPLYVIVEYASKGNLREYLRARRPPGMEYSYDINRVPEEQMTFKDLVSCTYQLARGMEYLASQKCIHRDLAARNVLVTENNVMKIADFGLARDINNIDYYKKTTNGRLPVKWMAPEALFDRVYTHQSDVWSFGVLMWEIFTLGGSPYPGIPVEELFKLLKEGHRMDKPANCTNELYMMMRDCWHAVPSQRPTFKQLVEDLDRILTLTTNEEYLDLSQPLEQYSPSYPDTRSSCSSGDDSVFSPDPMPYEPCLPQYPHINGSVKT
UniProt P03968, residues 16-155: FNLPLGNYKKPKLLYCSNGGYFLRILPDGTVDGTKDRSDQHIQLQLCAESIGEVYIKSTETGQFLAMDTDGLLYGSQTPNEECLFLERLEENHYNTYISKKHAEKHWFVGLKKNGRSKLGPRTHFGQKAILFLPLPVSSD
UniProt P09038, residues 134-288: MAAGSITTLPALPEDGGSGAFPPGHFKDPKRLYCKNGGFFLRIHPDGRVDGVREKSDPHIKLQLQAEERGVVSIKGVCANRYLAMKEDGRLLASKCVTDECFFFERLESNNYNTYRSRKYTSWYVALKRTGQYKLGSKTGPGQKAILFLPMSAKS

Columns and labels:
[1] = target: human flg (fms-like gene) fibroblast growth factor receptor (human) (UniProt P11362); assay: covalent crosslinking of [125I]FGF to intact cells with disuccinimidyl suberate, SDS-PAGE
[2] = target: human bek (bacterially expressed kinase) fibroblast growth factor receptor (human) (UniProt P21802); assay: as above
[3] = target: human flg (fms-like gene) fibroblast growth factor receptor (human) (UniProt P11362); assay: crosslinking of [125I]aFGF to transfected NIH 3T3 clones
[4] = target: human bek (bacterially expressed kinase) fibroblast growth factor receptor (human) (UniProt P21802); assay: as above
[5] = target: human flg (fms-like gene) fibroblast growth factor receptor (human) (UniProt P11362); assay: saturation binding of iodinated ligand to overexpressing cells
[6] = target: human bek (bacterially expressed kinase) fibroblast growth factor receptor (human) (UniProt P21802); assay: as above

Measured: binding

bovine derived acidic fibroblast growth factor (from UniProt P03968 16-155) (ligand)
binds: [1] | [2] | [3] | [4] | [5] | [6]

human recombinant basic fibroblast growth factor (from UniProt P09038 134-288) (ligand)
binds: [1] | [2] | [5] | [6]
